# Screening data, single-dose tests

The chains behind the UniProt entries cited, without tags or fusion partners. Residues count along the entry.
UniProt Q8IDJ8, 1-583: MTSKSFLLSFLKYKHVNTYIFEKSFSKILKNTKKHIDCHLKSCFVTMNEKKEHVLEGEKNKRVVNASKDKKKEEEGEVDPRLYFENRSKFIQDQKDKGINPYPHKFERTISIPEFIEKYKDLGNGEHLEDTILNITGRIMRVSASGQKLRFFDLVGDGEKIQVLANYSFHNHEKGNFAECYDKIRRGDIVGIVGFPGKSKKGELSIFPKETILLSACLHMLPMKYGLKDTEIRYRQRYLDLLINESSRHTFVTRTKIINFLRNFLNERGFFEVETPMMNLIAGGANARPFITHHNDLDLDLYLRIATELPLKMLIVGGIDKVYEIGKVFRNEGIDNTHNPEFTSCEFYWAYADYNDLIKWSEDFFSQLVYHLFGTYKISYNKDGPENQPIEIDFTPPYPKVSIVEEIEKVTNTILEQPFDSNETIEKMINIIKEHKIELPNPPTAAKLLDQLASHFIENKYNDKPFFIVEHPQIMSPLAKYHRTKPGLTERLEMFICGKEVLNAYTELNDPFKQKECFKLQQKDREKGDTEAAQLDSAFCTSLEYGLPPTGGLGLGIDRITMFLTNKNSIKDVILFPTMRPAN

Data taken from ChEMBL document CHEMBL3988442, “University of Dundee, Small-Polar-MMV Screening Library” (2021).

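Enzyme assay of the cytosolic lysyl-tRNA synthetase in 384-well plates, read by luminescence. Target: Lysine-tRNA ligase, Plasmodium falciparum 3D7 (UniProt Q8IDJ8). Concentration: 30 µM. Direction is inferred from only a few compounds that gave an IC50; most scored high, so higher reads as stronger inhibition. Of about 69,000 compounds tested this way, about 49 (0.071%) reached 50% or more in at least one test.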

Results are given as percent effect. The record does not define 0% and 100%; most values in the screen are far below 50% and negative numbers occur (in some assays of this library far below -100). This is an unselected part of the compounds tested.

compound	effect
Cc1ccccc1CN(C)C(=O)CN1CCOC(Cn2cccn2)C1 (stereo not shown)	-0.0402%
O=C([C@H]1CN(Cc2ccc(F)cc2)C[C@H]2OCC[C@@H]12)N1CCCO1	1.545%
Cc1cccc(-c2ccc(C(=O)NCC3CCOC3)c(=O)[nH]2)c1 (stereo not shown)	8.092%
CC(=O)N(C)c1nc(Cn2nnnc2C(C)(C)C)cs1	2.779%
COc1cccc2c1OCC(NC(=O)NCCC(N)=O)C2 (stereo not shown)	1.973%
NC(=O)CN1CCCN(C(=O)c2ccc(SC(F)F)cc2)CC1	0.5397%
CN(CCCO)C(=O)c1ccc2c(c1)nc(N1CC[C@H](O)C1)n2C	6.972%
CCOc1ncccc1NC(=O)NC1CCN(C(C)=O)CC1	1.635%
Cc1ccc(CN2CCc3ncnc(-c4ccoc4)c3CC2)o1	6.32%
CS(=O)(=O)CC1(CNc2cc(C#N)c3cc(Cl)ccc3n2)CC1	-1.364%
CCOC(=O)[C@H]1CNC[C@@H]1C(=O)OCC	3.955%
CNC(=O)[C@@]12CCO[C@@H]1CCN(Cc1c(C)noc1C)C2	1.56%
c1cnc(NC2COC3(CCN(Cc4cccs4)CC3)C2)nc1 (stereo not shown)	3.16%
CCCc1ccc(CN2CCC3(CCC(=O)N(CCCOC)C3)CC2)o1	3.356%
COc1ccccc1OCCN1CCCC(c2cc(C(N)=O)[nH]n2)C1 (stereo not shown)	7.573%
O=C1NC2(CCc3ccccc31)CCN(C(=O)c1ccncc1)C2 (stereo not shown)	-0.1139%
CN1CCC2(COCc3cnc(-c4ccccc4)nc32)C1 (stereo not shown)	9.161%
Cc1nc(C)n(CCCNc2ncnc3onc(C)c23)n1	5.107%
COc1ccc(CN(C)Cc2cccc(C#N)c2)c(OC)c1	1.123%
O=C(NCC1CCCO1)c1nc2c(s1)CCCN2Cc1ccccc1 (stereo not shown)	2.783%
CCn1cc(N2Cc3nc(N)ncc3C2=O)cn1	6.076%
O=C1CCC(=O)c2oc3ccc(Br)cc3c2N1	1.963%
NC(=O)CN1CCC(c2csc(Nc3cnccn3)n2)CC1	-0.6417%
Cc1cc(C)nc(C2CCN(C3CCOCC3)C2)n1 (stereo not shown)	1.917%
COc1cccc(CC(C)NC(=O)NCCc2cccnc2)c1 (stereo not shown)	-0.04751%
O=C(C[C@@H]1COC[C@H]2CN(Cc3cccnc3)C[C@@H]12)NCC1CC1	2.713%
Cc1cnn(CC(C)NCc2cccnc2)c1 (stereo not shown)	2.012%
CC(NCc1nnc2n1CCCC2)c1nc(C(C)(C)C)no1 (stereo not shown)	-2.744%
CN(CCCc1n[nH]c(N)c1C#N)C(=O)NC1CC1	3.097%
Cc1nc(CNC(=O)N(C)Cc2cnn(C)c2)cs1	-1.066%
CC(C)c1nnc(NC(=O)N(C)Cc2ccncc2)s1	1.291%
O=C(CCCc1ccc(Cl)cc1)N1CCC(c2nnc[nH]2)CC1	4.903%
CN(Cc1cnccn1)S(=O)(=O)N1CCCC1c1ccco1 (stereo not shown)	-0.3597%
CCc1nnc(CN2CCc3[nH]c(-c4ccc(OC)cc4)nc3C2)o1	-1.708%
O=C(Nc1cccc(CNCc2csc(Br)c2)c1)C1CC1	2.418%
CCC(c1ccccc1)N1CCN(C(=O)c2cc(C(N)=O)c[nH]2)CC1 (stereo not shown)	2.157%
COCc1noc(CN2CCCCC2CCc2cccs2)n1 (stereo not shown)	3.609%
Cc1cccc(=O)n1CCCNc1ncnc2c1CCNCC2	-1.036%
CS(=O)(=O)N1C[C@H](NC(=O)c2ccno2)[C@@H]2OCCC[C@@H]21	1.478%
CC(=O)Nc1ccc(Cl)c(C(=O)N(C)C(C)c2nccs2)c1 (stereo not shown)	5.838%
CCNc1nnc(SCC(=O)N2CCN(Cc3ccc(Cl)s3)CC2)s1	5.491%
O=C1CC(NCc2ncc[nH]2)CN1CCc1cccc(Cl)c1 (stereo not shown)	0.8005%
Cn1cc(C2CCCN2CCCc2nc(-c3cccs3)no2)cn1 (stereo not shown)	2.914%
Nc1ccc(C(=O)N2CCCC(C(=O)CCc3ccccc3)C2)cn1 (stereo not shown)	5.896%
O=c1[nH]c2ccccc2c(=O)n1Cc1nnnn1C1CC1	1.386%
Cc1c(Br)cccc1C(=O)NCCC1CCCNC1 (stereo not shown)	-1.478%
CC(C)NC(=O)[C@@H]1CN(C)C[C@]12COc1ccc(F)cc1C2=O	1.104%
CCN(CC1CCOC1)C(=O)c1cnc2onc(C)c2c1 (stereo not shown)	0.3202%
CC(C)(C)[S+]([O-])CCNC(=O)c1cccc2ncccc12 (stereo not shown)	4.421%
CC(O)CN(C)S(=O)(=O)c1ccc(C#N)cc1F (stereo not shown)	1.511%
CC(NC(=O)NCCn1ccnc1)c1ccc2c(c1)NC(=O)CO2 (stereo not shown)	1.15%
COc1ccccc1OCc1cc(C(=O)N2[C@H](C)CC[C@@H]2C)n[nH]1	1.885%
CCOc1ccc(-c2ccnc(C)n2)cc1C(=O)O	6.425%
CC(CO)NC(=O)c1ccc(NCc2cc(C#N)ccc2F)cc1 (stereo not shown)	3.14%
O=C(CC1CCc2ccccc21)N1CCC(O)(Cn2ccnc2)CC1 (stereo not shown)	4.835%
Cc1cc(C)cc(-c2ccc(CC3(C(=O)O)CCOCC3)cc2)c1	-4.823%
O=C(c1cnc(-c2ccco2)s1)N1CCCCC1Cn1cccn1 (stereo not shown)	0.6337%
O=C(Cc1ccsc1)N1CCCC2(COCCN(CC3CC3)C2)C1 (stereo not shown)	3.296%
O=C(NCc1nnc2n1CCC2)c1cccc(Br)c1	3.189%
O=S1(=O)NC2(CCCN(Cc3ccc(F)cc3)C2)COc2ccccc21 (stereo not shown)	5.439%
CN(C)C(=O)CN1C[C@@H]2CC[C@H](C1)N(Cc1cccc(Cl)c1Cl)C2	2.893%
CC(C)C(=O)NCc1cc(Br)ccc1F	2.244%
CN1CCN(CCOc2ccc(NC(=O)c3ccc[nH]3)cc2)CC1	1.61%
CCOc1ccccc1C(C(=O)O)N(C)Cc1cc(C)[nH]n1 (stereo not shown)	0.6878%
Cc1c(Br)c(C(=O)NC(C)c2ccccc2)nn1C (stereo not shown)	5.347%
CCc1nnc2ccc(N3CCN(S(=O)(=O)c4ccc(Cl)s4)CC3)nn12	0.2287%
CCC(=O)N1CCCC(c2nc(-c3cccnn3)no2)C1 (stereo not shown)	3.031%

Repeated from the top, 5 entries:

{"compound": "Cc1ccccc1CN(C)C(=O)CN1CCOC(Cn2cccn2)C1", "stereo": "stereo not shown", "effect": -0.0402}
{"compound": "O=C([C@H]1CN(Cc2ccc(F)cc2)C[C@H]2OCC[C@@H]12)N1CCCO1", "effect": 1.545}
{"compound": "Cc1cccc(-c2ccc(C(=O)NCC3CCOC3)c(=O)[nH]2)c1", "stereo": "stereo not shown", "effect": 8.092}
{"compound": "CC(=O)N(C)c1nc(Cn2nnnc2C(C)(C)C)cs1", "effect": 2.779}
{"compound": "COc1cccc2c1OCC(NC(=O)NCCC(N)=O)C2", "stereo": "stereo not shown", "effect": 1.973}